{"source": "PubChem BioAssay AID504834", "about": "(National Center for Advancing Translational Sciences (NCATS), 2011)", "note": "Hit rate of the full screen: of about 320,000 compounds, about 22,000 (6.9%) were called active. Inconclusive results, whose numbers are uncertain, are shown with a selection of clear calls. The call rests on the fitted dose curve; in most records, active means well fitted inhibition curve with a large enough effect; inconclusive means small, poorly fitted or top-dose-only effect, or another doubt; inactive means no such curve, though single readings can be large or run the other way. Where the call is inconclusive, the potency comes from a doubtful curve fit. On the % scale 0 is the no-effect control and ±100 the full control effect; potency means the concentration at half of the fitted maximal effect."}
{"assay": "Primary qHTS for delayed death inhibitors of the malarial parasite plastid, 96 hour incubation", "settings": "P. falciparum luciferase reporter growth; series mostly up to 28.7 µM; activity change, negative = inhibition: at the top concentration", "method_in_brief": "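96 h incubation, 37 C, 5% CO2, of luciferase-reporter P. falciparum-infected RBCs (2% hematocrit, 0.05% parasitemia final) with test compounds; endpoint luminescence.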"}
{"smiles": "NCCc1c(-c2ccccc2)n(-c2ccccc2)c2ccccc12", "Potency": "inconclusive: 18.5 µM [inhibitor, single point]"}
{"smiles": "O=C(c1ccccc1)N1CCN(Cc2ccccc2Br)CC1", "Potency": "inconclusive: 11.7 µM [inhibitor, single point]"}
{"smiles": "COc1ccc(CN(C)C(=O)Cc2c[nH]c3ccccc23)cc1", "activity change, negative = inhibition": "inactive: 8.14%"}
{"smiles": "O=C(c1ccccc1)N1CCN(C(=O)N2CCCCC2)CC1", "activity change, negative = inhibition": "inactive: 10.7%"}
{"smiles": "CCCN(CC(=O)Nc1ccccc1C)C(=O)CCN1C(=O)c2cccc([N+](=O)[O-])c2C1=O", "Potency": "inconclusive: 4.15 µM [inhibitor, single point]"}
{"smiles": "O=C(CN(C(=O)C1COc2ccccc2O1)c1ccccc1)NCC1CCCO1", "note": "(stereo unspecified)", "Potency": "inconclusive: 16.5 µM [inhibitor, partial curve, poor fit]"}
{"smiles": "CC1=C(C(=O)c2ccccc2)C(c2cn(-c3ccccc3)nc2-c2ccc(Cl)cc2)NC(=S)N1", "note": "(stereo unspecified)", "Potency": "inconclusive: 11.7 µM [inhibitor, partial curve, poor fit]"}
{"smiles": "O=C(CN(C(=O)CSc1nnc(COc2ccccc2)o1)c1ccc(F)cc1)NC1CCCC1", "activity change, negative = inhibition": "inactive: 6.8%"}
{"smiles": "COc1ccc2nc(C)cc(NCc3cccc(C(F)(F)F)c3)c2c1", "Potency": "inconclusive: 0.415 µM [inhibitor, full curve, poor fit]"}
{"smiles": "COc1ccc(-c2n[nH]c3c2CN(C(=O)c2ccc(OC)c(OC)c2)CC3)cc1", "Potency": "active: 11.7 µM"}
{"smiles": "O=C(CCN1C(=O)/C(=C/c2ccccc2F)SC1=S)N[C@@H](CO)Cc1ccccc1", "Potency": "inconclusive: 10.4 µM [inhibitor, partial curve]"}
{"smiles": "O=C(CCC(=O)N(CC(=O)NC1CCCC1)Cc1ccccc1)Nc1nccs1", "activity change, negative = inhibition": "inactive: 1.42%"}
{"smiles": "CC(C)CNS(=O)(=O)c1ccc(CCC(=O)NCc2ccc(Cl)cc2)cc1", "Potency": "inconclusive: 18.5 µM [inhibitor, single point]"}
{"smiles": "CCOc1ccc(NS(=O)(=O)c2ccc(C(=O)N3CCCCC3)cc2)cc1", "activity change, negative = inhibition": "inactive: -35.8%"}
{"smiles": "Cc1cccc(N=N/C(=C\\O)C(=O)c2ccc(Br)cc2)c1", "activity change, negative = inhibition": "inactive: 26.7%"}
{"smiles": "O=C(COc1cccc(-n2cnnn2)c1)Nc1ccccc1", "Potency": "inconclusive: 18.5 µM [inhibitor, single point]"}
{"smiles": "O=C(CSc1nnc(-c2ccncc2)o1)NCc1ccccc1Cl", "activity change, negative = inhibition": "inactive: -16.1%"}
{"smiles": "Cn1c(=O)oc2cc(S(=O)(=O)N3CCC(C(=O)NCC4COc5ccccc5O4)CC3)ccc21", "note": "(stereo unspecified)", "activity change, negative = inhibition": "inactive: 33.6%"}
{"smiles": "COc1ccc(C(CNc2ccc(S(=O)(=O)N3CCCC3)cc2[N+](=O)[O-])N2CCCC2)cc1", "note": "(stereo unspecified)", "Potency": "active: 10.4 µM"}
{"smiles": "Cc1cccc(NC(=O)COc2ccc(Br)cc2C)n1", "Potency": "inconclusive: 16.5 µM [inhibitor, single point]"}
{"smiles": "CCCCNC(=O)Nc1ccccc1C(=O)NCCC", "activity change, negative = inhibition": "inactive: -15.6%"}
{"smiles": "CCOc1ccc(NC(=O)CSc2nc3c(c(=O)n2-c2ccccc2OC)SCC3)cc1", "Potency": "inconclusive: 14.7 µM [inhibitor, partial curve, poor fit]"}
{"smiles": "Cn1cncc1C#Cc1ccc2cc(C3(O)CCCCC3)oc(=O)c2c1", "Potency": "inconclusive: 16.5 µM [inhibitor, single point]"}
{"smiles": "O=C(/C=C/c1cn(-c2ccccc2)nc1-c1cccnc1)N1CCCCC1", "Potency": "inconclusive: 18.5 µM [inhibitor, single point]"}
{"smiles": "COc1ccc(OCc2nnc(SCC(=O)c3c(N)n(C)c(=O)n(C)c3=O)n2-c2ccccc2F)cc1", "Potency": "inconclusive: 3.7 µM [inhibitor, partial curve]"}
{"smiles": "O=C(CCc1ccc(S(=O)(=O)N2CCOCC2)cc1)Nc1ccc2ccccc2c1", "Potency": "active: 5.22 µM"}
{"smiles": "O=C1c2ccccc2CCC12N=NCC2c1ccccc1", "note": "(stereo unspecified)", "Potency": "inconclusive: 11.7 µM [inhibitor, single point]"}
{"smiles": "Cc1nn(CC(=O)Nc2c(C)n(C)n(-c3ccccc3)c2=O)c(C)c1[N+](=O)[O-]", "Potency": "inconclusive: 0.0026 µM [inhibitor, full curve, poor fit]"}
{"smiles": "CC1CCCN(S(=O)(=O)c2coc(C(N)=O)c2)C1", "note": "(stereo unspecified)", "Potency": "inconclusive: 18.5 µM [inhibitor, single point]"}
{"smiles": "Cc1csc(=O)n1CCC(=O)OCC(=O)Nc1cc(Cl)ccc1[N+](=O)[O-]", "activity change, negative = inhibition": "inactive: 80%"}
{"smiles": "C=CCn1c(SCC(=O)c2cc(C)n(CC3CCCO3)c2C)nnc1-c1ccccc1", "note": "(stereo unspecified)", "Potency": "active: 9.28 µM"}
{"smiles": "CC1(c2ccncc2)Nc2ccccc2-c2nc3ccccc3n21", "note": "(stereo unspecified)", "Potency": "active: 2.62 µM"}
{"smiles": "CCc1ccc(/C=C2/SC(=S)N(CCC(=O)NCCCN3CCOCC3)C2=O)cc1", "Potency": "inconclusive: 18.5 µM [inhibitor, single point]"}
{"smiles": "CC(C)CCNC(=O)C(=O)Nc1cc2c3c(c1)CCC(=O)N3CCC2", "Potency": "inconclusive: 6.57 µM [inhibitor, partial curve]"}
{"smiles": "Cc1ccc(-n2c(=O)c3ccccc3n(CC(=O)C(C)(C)C)c2=O)cc1", "Potency": "inconclusive: 0.738 µM [inhibitor, full curve, poor fit]"}
{"smiles": "COc1ccccc1NC(=O)Nc1nnc(CC(=O)Nc2ccccc2C)s1", "Potency": "inconclusive: 4.15 µM [inhibitor, single point]"}
{"smiles": "CC(OC(=O)/C=C/c1cccc(Cl)c1)C(=O)NC1CCCCC1C", "note": "(stereo unspecified)", "activity change, negative = inhibition": "inactive: 36.6%"}
{"smiles": "CC1CCN(C(=O)c2ccc3c(c2)OCO3)CC1", "Potency": "active: 13.1 µM"}
{"smiles": "COc1ccc(CCNC(=O)c2cnc3scc(C)n3c2=O)cc1OC", "Potency": "inconclusive: 0.329 µM [inhibitor, full curve, poor fit]"}
{"smiles": "COc1ccc(Nc2nc(Cl)nc(NCCO)n2)cc1", "activity change, negative = inhibition": "inactive: -29.3%"}
{"smiles": "CCc1ccc(C(=O)N2CCCC2)s1", "Potency": "inconclusive: 11.7 µM [inhibitor, single point]"}
{"smiles": "CCOC(=O)CSc1nnc(CSc2nc3sc4c(c3c(=O)[nH]2)CCCC4)n1-c1ccccc1", "activity change, negative = inhibition": "inactive: 117%"}
{"smiles": "COCCn1nnnc1SCC(=O)c1ccccc1", "Potency": "inconclusive: 11.7 µM [inhibitor, partial curve, poor fit]"}
{"smiles": "CC(=O)c1cccc(OCc2cc(C(=O)N3C[C@H]4CC[C@H]3C4)no2)c1", "Potency": "inconclusive: 0.0029 µM [inhibitor, full curve, poor fit]"}
{"smiles": "Cc1c(Br)c([N+](=O)[O-])nn1C(C)C(=O)Nc1nccs1", "note": "(stereo unspecified)", "Potency": "inconclusive: 18.5 µM [inhibitor, single point]"}
{"smiles": "CN(C(=O)COC(=O)c1cccc(S(=O)(=O)N2CCOCC2)c1)C1CCS(=O)(=O)C1", "note": "(stereo unspecified)", "activity change, negative = inhibition": "inactive: 21.9%"}
{"smiles": "[O-]/C(=C(\\C(=S)Nc1ccc(Cl)cc1)[n+]1ccccc1)c1ccc(OC(F)F)cc1", "activity change, negative = inhibition": "inactive: -4.52%"}
{"smiles": "Cc1cc(C)c(S(=O)(=O)NC(CC(=O)O)c2cccc([N+](=O)[O-])c2)c(C)c1", "note": "(stereo unspecified)", "activity change, negative = inhibition": "inactive: -1.55%"}
{"smiles": "O=C(Cc1ccccc1)NCC(=O)N1CCCCC1", "Potency": "inconclusive: 18.5 µM [inhibitor, single point]"}
{"smiles": "Cc1cc(C(=O)COC(=O)CC2Sc3ccccc3NC2=O)c(C)n1-c1ccccc1", "note": "(stereo unspecified)", "Potency": "inconclusive: 18.5 µM [inhibitor, single point]"}
{"smiles": "COc1ccc(C(CNC(=O)c2oc3c(Cl)cccc3c2C)N2CCCC2)cc1", "note": "(stereo unspecified)", "Potency": "active: 10.4 µM"}
{"smiles": "Cc1ccccc1OCC(=O)OCC(=O)N1CCCc2ccccc21", "activity change, negative = inhibition": "inactive: 40.6%"}
{"smiles": "O=C(Nc1ccc2[nH]c3c(c2c1)CCCC3)c1ccco1", "Potency": "inconclusive: 18.5 µM [inhibitor, single point]"}
{"smiles": "CC(C)OCCCNC(=O)c1cccc(NC(=O)c2ccccc2)c1", "Potency": "inconclusive: 10.4 µM [inhibitor, single point]"}
{"smiles": "Cc1ccc(-n2nc(C)cc2NC(=O)c2ccc(C)s2)cc1", "Potency": "inconclusive: 18.5 µM [inhibitor, single point]"}
{"smiles": "COc1ccc(CCNC(=O)/C(C#N)=C/c2cccc(OCc3ccccc3)c2)cc1OC", "Potency": "active: 11.7 µM"}
{"smiles": "Cc1csc(NC(=O)CSc2nccn2Cc2ccco2)n1", "activity change, negative = inhibition": "inactive: 30.7%"}
{"smiles": "Cn1c(=O)c2c(nc(N3CCN(c4ccc([N+](=O)[O-])cc4)CC3)n2C)n(C)c1=O", "Potency": "inconclusive: 9.28 µM [inhibitor, partial curve, poor fit]"}
{"smiles": "CCOc1cccc(CN2CCC(n3nccc3NC(=O)c3ccc4c(c3)OCO4)CC2)c1", "activity change, negative = inhibition": "inactive: 12.5%"}
{"smiles": "CCCCC[C@H](O)/C=C/[C@@H]1[C@@H](C/C=C\\CCCC(=O)O)[C@@H](O)C[C@H]1O", "Potency": "inconclusive: 6.75 µM [inhibitor, partial curve]"}
{"smiles": "Cn1cccc1-c1cc(C(=O)N/N=C/c2ccc(F)cc2)[nH]n1", "activity change, negative = inhibition": "inactive: -13.4%"}
{"smiles": "COc1ccc(OC)c(/C=C/c2[nH]c(=O)[nH]c(=O)c2[N+](=O)[O-])c1", "Potency": "inconclusive: 11.7 µM [inhibitor, single point]"}
{"smiles": "Cc1ccc(S(=O)(=O)n2nc(OC(=O)c3ccccc3F)cc2N)cc1", "Potency": "active: 11.7 µM"}
{"smiles": "CCOC(=O)c1[nH]c2ccccc2c1NC(C)=O", "activity change, negative = inhibition": "inactive: 22.2%"}
{"smiles": "CCCCn1c(SCC(=O)N2CCOCC2)nc2ccccc2c1=O", "Potency": "inconclusive: 18.5 µM [inhibitor, single point]"}
{"smiles": "CCOc1ccc(C(=O)NC(=S)NC2CCCC2)cc1[N+](=O)[O-]", "Potency": "inconclusive: 18.5 µM [inhibitor, single point]"}
{"smiles": "CN(C)C1=NC[C@H](Cc2ccccc2)N1CC1CCCC1", "Potency": "inconclusive: 18.5 µM [inhibitor, single point]"}
{"smiles": "CCCCOc1ccc(C(C)NC(=O)CCS(=O)(=O)Cc2ccc(C)cc2)cc1", "note": "(stereo unspecified)", "Potency": "inconclusive: 10.4 µM [inhibitor, single point]"}
{"smiles": "CCOC(=O)[C@H]1[C@H]2COc3ccc(Cl)cc3[C@@H]2N2C(=O)CN(Cc3ccc(Cl)cc3)C(=O)[C@@]12C", "Potency": "inconclusive: 4.15 µM [inhibitor, single point]"}
{"smiles": "Cc1cc(S(=O)(=O)NC2CCCCC2)ccc1OCC(=O)NCc1ccccn1", "Potency": "inconclusive: 18.5 µM [inhibitor, single point]"}
{"smiles": "O=c1[nH]c(O)c(/C=C2\\C=Nc3ccc(OCc4ccccc4)cc32)c(=O)[nH]1", "Potency": "inconclusive: 13.1 µM [inhibitor, single point]"}
